Data on one molecule can be found in patent US8969515B2, “Pharmaceutical composition for treating hyperproliferative diseases” (OOO “MetaMax”, priority 2011, dated 2015).

This assay concerns HEK293 cell line, non-synchronized and synchronized. Kind of assay: Effect of pAntp chimeric peptide versions on cell cycle, HEK293. The format is cell-based, human. The settings on record: 40 μM. The method, then:
FIG. 22. Effect of chimeric peptide pAntp containing a p16INK4a fragment, on the cell cycle. A—non-synchronized cell line HEK293, B—cell line HEK293 synchronized in S-phase. Peptide concentration is 40 µM. The peptides are pAntp and three further peptides 1-p16, 2-p16, and 3-p16, wherein peptides 1-p16 and 2-p16 are synthetic peptides differing by the location of the 20 amino acids fragment of p16 relative to pAntp; and peptide 3-p16 is a genetically engineered peptide comprising a 50 amino acids insert of protein Antp.
We used three versions of the chimeric peptide containing p16INK4a active center and pAntp vector. These chimeric peptides differ by location of the active center relative to N-C termini of the molecule and the presence of an insertion of 44 amino acids ([…], SEQ ID NO: 9) for peptide 3 produced by genetic engineering method (Table 1).
In the study of the properties of these peptides we also investigated synchronized and nonsynchronized cell cultures. In a synchronized culture, the peptide was added at the time of sync block removal and in the nonsynchronized at a monolayer density (for adhesion cultures) of ~50%.

B1: RGSDAAREGFLDTLVVLHRAGARRQIKIWFQNRRMKWKKSERKRGRQTYTRYQTLELEKEFHFNRYLTRRRRIEIAHALCLTE (protein, listed as Homo Sapiens)
chain: RGSDAAREGFLDTLVVLHRAGARRQIKIWFQNRRMKWKKSERKRGRQTYTRYQTLELEKEFHFNRYLTRRRRIEIAHALCLTE
modifications: pANTp_p16(3), chimeric peptide
Turning to B1, where the note is “synchronized and nonsynchronized cells”, the “changes of the cell cycle phases” value is listed as “marked reduction in S-phase”. The “anti-proliferative effect on cells” value (summary of HEK293 and A549 experiments) was “has an antiproliferative effect”.
